From paper PMC9120014 come the findings set out here.

Chains of the proteins cited; added tags and fusions are not shown.
UniProt P63013: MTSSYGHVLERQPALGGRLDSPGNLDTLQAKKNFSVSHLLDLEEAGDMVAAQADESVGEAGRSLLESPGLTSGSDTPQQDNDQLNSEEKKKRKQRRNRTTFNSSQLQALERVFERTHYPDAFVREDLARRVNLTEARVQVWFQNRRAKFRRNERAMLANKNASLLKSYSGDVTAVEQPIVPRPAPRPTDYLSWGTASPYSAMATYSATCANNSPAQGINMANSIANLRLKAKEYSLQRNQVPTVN
UniProt Q8BUN5: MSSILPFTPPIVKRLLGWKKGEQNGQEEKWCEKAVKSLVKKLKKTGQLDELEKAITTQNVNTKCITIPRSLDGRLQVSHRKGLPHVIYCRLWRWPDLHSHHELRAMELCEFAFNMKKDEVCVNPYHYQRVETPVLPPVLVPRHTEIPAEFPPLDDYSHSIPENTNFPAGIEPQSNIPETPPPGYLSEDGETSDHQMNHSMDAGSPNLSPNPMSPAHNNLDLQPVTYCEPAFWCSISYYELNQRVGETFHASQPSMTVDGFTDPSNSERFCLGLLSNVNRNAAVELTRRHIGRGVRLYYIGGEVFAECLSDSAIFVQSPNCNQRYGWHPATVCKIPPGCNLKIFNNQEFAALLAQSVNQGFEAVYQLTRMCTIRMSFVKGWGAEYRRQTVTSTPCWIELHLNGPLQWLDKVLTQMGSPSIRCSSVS

Results are given in words; binding and its absence hold for the method and conditions named. Binding seen in cells or lysates may run through a third protein. Some results given as binding are weak or reduced against the parent protein; the word gives no strength.

For the test, the target named is Prrx1 (paired related homeobox 1) (mouse (endogenous in MEF)) (UniProt P63013). As to the kind of experiment: co-IP; Prrx1 precipitated from MEFs after sonication of the genome to 100 bp in length; Smad3 detected in the precipitate; repeated three times.

For the substance Smad3 (from UniProt Q8BUN5 1-425), the binding result is “binds”.
